Assay results reported in PMC10733312.
Results are given in words; binding and its absence hold for the method and conditions named. In cells and extracts the contact can be indirect. Some entries that bind do so weakly or less than the wild type. Sequences can lack the tags named with a protein.

Amino acid sequences for entries named in this document (tags omitted).
UniProt P19474: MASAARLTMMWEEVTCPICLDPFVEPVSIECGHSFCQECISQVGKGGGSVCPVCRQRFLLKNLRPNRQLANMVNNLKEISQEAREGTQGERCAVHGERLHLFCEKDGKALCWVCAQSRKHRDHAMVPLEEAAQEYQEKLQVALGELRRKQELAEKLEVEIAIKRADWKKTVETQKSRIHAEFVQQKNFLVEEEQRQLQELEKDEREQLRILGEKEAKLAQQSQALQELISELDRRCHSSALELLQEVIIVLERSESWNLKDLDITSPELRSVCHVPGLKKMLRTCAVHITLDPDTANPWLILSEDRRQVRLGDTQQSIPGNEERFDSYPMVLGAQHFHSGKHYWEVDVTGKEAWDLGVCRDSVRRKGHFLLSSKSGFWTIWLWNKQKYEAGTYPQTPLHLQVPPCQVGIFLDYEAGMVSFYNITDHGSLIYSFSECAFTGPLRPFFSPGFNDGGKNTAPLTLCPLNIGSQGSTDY

Target: T1, Flag-Sohlh2 (UniProt Q9NX45)
T1 sequence: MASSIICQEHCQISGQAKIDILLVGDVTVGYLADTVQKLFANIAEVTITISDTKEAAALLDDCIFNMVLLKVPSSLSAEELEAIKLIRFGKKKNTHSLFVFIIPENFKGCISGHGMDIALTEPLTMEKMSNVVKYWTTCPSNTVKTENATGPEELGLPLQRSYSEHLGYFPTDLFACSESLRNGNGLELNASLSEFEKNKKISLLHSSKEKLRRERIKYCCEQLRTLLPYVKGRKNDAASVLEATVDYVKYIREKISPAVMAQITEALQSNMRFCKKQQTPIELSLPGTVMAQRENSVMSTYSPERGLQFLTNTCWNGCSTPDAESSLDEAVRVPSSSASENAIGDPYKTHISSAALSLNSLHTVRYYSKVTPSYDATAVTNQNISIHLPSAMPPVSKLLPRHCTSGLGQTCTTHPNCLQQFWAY
Assay: co-IP; THP-1 or HEK293T cells lysed 24 h after transfection; supernatants incubated with anti-Flag antibody (normal mouse IgG as negative control) for 2 h, then protein A/G beads overnight at 4 °C; washed 3 times with lysis buffer

binding: binds
Substance: E3 ubiquitin ligase TRIM21 (from UniProt P19474 1-475) (enzyme)
